Values quoted from earlier work as cited in patent US20050171004A1, “Use of cardiotrophin-1 to promote wound healing and counteract overt fibrosis” (priority 2003, published 2005).
At least one compound was matched to its structure with a doubt left.

Tested on: P13K
Conditions: read-out: IC50 for inhibition of P13K; cited from earlier work

O=c1cc(N2CCOCC2)oc2c(-c3ccccc3)cccc12 [LY294002]
IC50: 10 µM
